Measurements reported in PubChem BioAssay AID1224829 (NIAID, 2016).

Purpose: 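Secondary check of hits that alter LPS-induced p65 translocation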 (follow-up of hits)
System: mouse RAW264.7 G9 macrophage reporter cells
Knock-down reagent: single siRNA against mouse genes, 100 nM
Timing: 2 days of siRNA knock-down, then 40 min of LPS before fixing
Treatment: LPS (Salmonella minnesota R595) at 10 ng/ml
Detection: 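Imaging of GFP-p65 after 40 min of LPS; nuclear over perinuclear ring intensity ratio, scaled to plate median and non-targeting control wells, given as z-score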
Reading the numbers: p65 translocation z-score and gene median z-score, per vendor: higher = more nuclear NF-kappaB p65 after LPS
Hit rule: 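Active means the replicate-mean z-score lies beyond plus or minus 2, in either direction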
Calls: active = changed p65 translocation (either direction); inactive = no clear change
The deposit covers about 3,800 reagents; shown is an unselected part. 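Calls cover raised and lowered translocation; gene median uses one vendor's three siRNAs; qiagen siRNAs acted more weakly than ambion siRNAs.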 Reagents against one gene are numbered here.

target gene	reagent	siRNA vendor or control pool	p65 translocation z-score, replicate mean	p65 translocation z-score, replicate 1	p65 translocation z-score, replicate 2	gene median z-score, per vendor	call
Thap11	1	ambion single siRNA	-5.37	-6.46	-4.28	-4.05	active
Thap11	2	ambion single siRNA	-4.07	-4.32	-3.83	-4.05	active
Thap11	3	ambion single siRNA	-1.81	-1.8	-1.83	-4.05	inactive
Thap11	4	qiagen single siRNA	4.03	2.55	5.52	2.55	active
Thap11	5	qiagen single siRNA	2.75	1.18	4.32	2.55	active
Thap11	6	qiagen single siRNA	-0.854	-0.854		2.55	inactive
Tcf20	1	ambion single siRNA	-0.434	-0.148	-0.72	-1.47	inactive
Tcf20	2	ambion single siRNA	-3.12	-3.82	-2.42	-1.47	active
Tcf20	3	ambion single siRNA	-1.47	-1.87	-1.06	-1.47	inactive
Tcf20	4	qiagen single siRNA	-0.0501	-0.186	0.0856	0.935	inactive
Tcf20	5	qiagen single siRNA	0.935	0.822	1.05	0.935	inactive
Tcf20	6	qiagen single siRNA	1.23	1.14	1.32	0.935	inactive
Apobec2	1	ambion single siRNA	4.42	5.55	3.29	0.914	active
Apobec2	2	ambion single siRNA	0.914	1.14	0.69	0.914	inactive
Apobec2	3	ambion single siRNA	-3.02	-2.97	-3.07	0.914	active
Apobec2	4	qiagen single siRNA	-0.223	-1.04	0.59	0.305	inactive
Apobec2	5	qiagen single siRNA	0.556	0.542	0.57	0.305	inactive
Apobec2	6	qiagen single siRNA	-0.11	0.0684	-0.288	0.305	inactive
Il17rd	1	ambion single siRNA	1.3	1.49	1.11	0.547	inactive
Il17rd	2	ambion single siRNA	0.547	0.878	0.217	0.547	inactive
Il17rd	3	ambion single siRNA	-4.45	-4.17	-4.72	0.547	active
Il17rd	4	qiagen single siRNA	0.385	0.135	0.634	0.135	inactive
Il17rd	5	qiagen single siRNA	1.35	-0.175	2.87	0.135	inactive
Il17rd	6	qiagen single siRNA	-3.32	-3.32		0.135	active

2 entries from above, ordered by “p65 translocation z-score, replicate mean”, lowest first:
target gene	reagent	siRNA vendor or control pool	p65 translocation z-score, replicate mean	p65 translocation z-score, replicate 1	p65 translocation z-score, replicate 2	gene median z-score, per vendor	call
Apobec2	6	qiagen single siRNA	-0.11	0.0684	-0.288	0.305	inactive
Il17rd	1	ambion single siRNA	1.3	1.49	1.11	0.547	inactive
